No constants are given. Whether binding was seen depends on the method and setting. Binding seen in cells or lysates may run through a third protein. Some binding calls cover weakened binding; strength is not graded here. For some assays here: Tags and fused reporters may be left off the sequences shown.

In experiment [1] the target is ZAP-S, endogenous in HEK293T cells (human (endogenous in HEK293T)), Q7Z2W4. Description: co-IP; anti-ZAP antibody (Abcam) and Protein G Dynabeads on post-nuclear supernatants of HEK293T cells transfected with KHNYN-FLAG; blot for FLAG; lysis buffer 0.5% NP-40, 150 mM KCl, 10 mM HEPES pH 7.5, 3 mM MgCl2; 4°C. The settings on record: remark: other sources report otherwise.

The target of experiment [2] is KHNYN-1-FLAG (human), O15037. Description: co-IP; anti-FLAG antibody and Protein G Dynabeads on post-nuclear supernatants of HEK293T cells transfected with KHNYN-FLAG; blots for ZAP and TRIM25; lysis buffer 0.5% NP-40, 150 mM KCl, 10 mM HEPES pH 7.5, 3 mM MgCl2; 4°C; also in Control, TRIM25 CRISPR and ZAP CRISPR HEK293T cells. Conditions: remark: other sources report otherwise.

B1: KHNYN-1-FLAG, O15037 1-678 (protein)
chain: MPTWGARPASPDRFAVSAEAENKVREQQPHVERIFSVGVSVLPKDCPDNPHIWLQLEGPKENASRAKEYLKGLCSPELQDEIHYPPKLHCIFLGAQGFFLDCLAWSTSAHLVPRAPGSLMISGLTEAFVMAQSRVEELAERLSWDFTPGPSSGASQCTGVLRDFSALLQSPGDAHREALLQLPLAVQEELLSLVQEASSGQGPGALASWEGRSSALLGAQCQGVRAPPSDGRESLDTGSMGPGDCRGARGDTYAVEKEGGKQGGPREMDWGWKELPGEEAWEREVALRPQSVGGGARESAPLKGKALGKEEIALGGGGFCVHREPPGAHGSCHRAAQSRGASLLQRLHNGNASPPRVPSPPPAPEPPWHCGDRGDCGDRGDVGDRGDKQQGMARGRGPQWKRGARGGNLVTGTQRFKEALQDPFTLCLANVPGQPDLRHIVIDGSNVAMVHGLQHYFSSRGIAIAVQYFWDRGHRDITVFVPQWRFSKDAKVRESHFLQKLYSLSLLSLTPSRVMDGKRISSYDDRFMVKLAEETDGIIVSNDQFRDLAEESEKWMAIIRERLLPFTFVGNLFMVPDDPLGRNGPTLDEFLKKPARTQGSSKAQHPSRGFAEHGKQQQGREEEKGSGGIRKTRETERLRRQLLEVFWGQDHKVDFILQREPYCRDINQLSEALLSLNF
In the case of B1, in experiment [1], the binding result is on record as “binds”.

B2: ZAP-S, endogenous in HEK293T cells, Q7Z2W4-2 1-699 (protein)
chain: MADPEVCCFITKILCAHGGRMALDALLQEIALSEPQLCEVLQVAGPDRFVVLETGGEAGITRSVVATTRARVCRRKYCQRPCDNLHLCKLNLLGRCNYSQSERNLCKYSHEVLSEENFKVLKNHELSGLNKEELAVLLLQSDPFFMPEICKSYKGEGRQQICNQQPPCSRLHICDHFTRGNCRFPNCLRSHNLMDRKVLAIMREHGLNPDVVQNIQDICNSKHMQKNPPGPRAPSSHRRNMAYRARSKSRDRFFQGSQEFLASASASAERSCTPSPDQISHRASLEDAPVDDLTRKFTYLGSQDRARPPSGSSKATDLGGTSQAGTSQRFLENGSQEDLLHGNPGSTYLASNSTSAPNWKSLTSWTNDQGARRKTVFSPTLPAARSSLGSLQTPEAVTTRKGTGLLSSDYRIINGKSGTQDIQPGPLFNNNADGVATDITSTRSLNYKSTSSGHREISSPRIQDAGPASRDVQATGRIADDADPRVALVNDSLSDVTSTTSSRVDDHDSEEICLDHLCKGCPLNGSCSKVHFHLPYRWQMLIGKTWTDFEHMETIEKGYCNPGIHLCSVGSYTINFRVMSCDSFPIRRLSTPSSVTKPANSVFTTKWIWYWKNESGTWIQYGEEKDKRKNSNVDSSYLESLYQSCPRGVVPFQAGSRNYELSFQGMIQTNIASKTQKDVIRRPTFVPQWYVQQMKRGPE
B2: the binding result in experiment [2] is given as “binds”.

The record behind these values is publication PMC6615859.
